This assay concerns the target T1, GST-Sec3N (Sec3 N-terminus, a.a. 1–320) (yeast, UniProt P33332 1-320).
T1 construct: Sec3, yeast exocyst subunit, N-terminus a.a; 1-320; also called pG1860; source: E. coli BL21(DE3), purified (Glutathione Sepharose 4B)
T1 sequence (looked up): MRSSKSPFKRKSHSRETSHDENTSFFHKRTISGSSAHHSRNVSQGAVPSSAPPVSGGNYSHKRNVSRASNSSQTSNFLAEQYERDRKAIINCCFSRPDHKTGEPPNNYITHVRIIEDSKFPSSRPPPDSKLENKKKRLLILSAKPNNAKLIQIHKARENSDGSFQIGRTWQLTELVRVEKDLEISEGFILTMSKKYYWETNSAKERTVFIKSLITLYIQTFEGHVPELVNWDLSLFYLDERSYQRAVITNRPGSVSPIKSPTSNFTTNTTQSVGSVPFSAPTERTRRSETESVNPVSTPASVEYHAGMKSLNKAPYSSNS
Kind of assay: pull-down; GST fusion proteins (12 μg) coupled to glutathione Sepharose 4B; His6-Sso2 2 μM added, 25 °C for 2 h; three washes in PBS; SDS-PAGE, Coomassie blue; both purified.

Amino acid sequences for entries named in this document (tags omitted). A change or cut given only in a name is not applied to a line headed by its entry.
UniProt P32867: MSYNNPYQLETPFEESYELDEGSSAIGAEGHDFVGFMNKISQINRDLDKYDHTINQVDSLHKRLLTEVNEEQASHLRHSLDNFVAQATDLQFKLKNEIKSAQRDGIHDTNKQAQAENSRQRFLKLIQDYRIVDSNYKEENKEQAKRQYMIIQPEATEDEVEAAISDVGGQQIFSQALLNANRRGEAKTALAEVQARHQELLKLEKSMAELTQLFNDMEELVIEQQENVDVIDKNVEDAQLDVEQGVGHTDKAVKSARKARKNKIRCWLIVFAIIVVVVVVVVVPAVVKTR

These are yes or no findings as the source states them, for the method shown. A result given as binding can be weak or reduced; the word gives no strength.

Consider Sso1 (from UniProt P32867), for which the binding entry is reported as “binds”.

The values are drawn from paper PMC5267525, “Sec3 promotes the initial binary t-SNARE complex assembly and membrane fusion” (Nature Communications, 2017).
